Legend:
[1] = tested on: A2058 human melanoma cells; experiment: in vitro cytostatic (antiproliferative) activity, Alamar Blue (resazurin) assay, A2058; type: cell-based; details: A2058 melanoma cell culture
Protocol: (§1) For the evaluation of the in vitro antiproliferative activity of the compounds, the cell viability was determined by resazurin (Alamar Blue) assay on MDA-MB 231 breast carcinoma, A2058 melanoma, and HT-29 colon carcinoma cell culture. The control wells were treated only with serum-free medium.
(§2) The cytostatic effect of the compounds was studied on tumor cell cultures in vitro. MDA-MB-231 human breast adenocarcinoma cells were cultured in DMEM medium supplemented with 10% FBS, 2 mM L-glutamine, penicillin–streptomycin antibiotics mixture (50 IU/mL, and 50 μg/mL, respectively), 1 mM sodium pyruvate, and 1% non-essential amino acid mixture. A2058 human melanoma cells, and HT-29 colorectal carcinoma cells were cultured in RPMI medium supplemented with 10% FBS, 2 mM L-glutamine, and penicillin–streptomycin antibiotics mixture (50 IU/mL and 50 μg/mL, respectively). Cell lines were generous gifts from Dr. József Tóvári (Department of Experimental Pharmacology, National Institute of Oncology, Budapest, Hungary).
(§3) All cell cultures were maintained at 37 °C in a humidified atmosphere with 5% CO2. […] After that, cell viability was determined using the Alamar Blue assay. […] Fluorescence intensity in each well was measured using a Synergy H4 multimode microplate reader (BioTek, Winooski, VT); at λex = 530/30 and λem = 610/10 nm. […]

[2] = tested on: MDA-MB-231 human breast adenocarcinoma cells; experiment: in vitro cytostatic (antiproliferative) activity, Alamar Blue (resazurin) assay, MDA-MB 231; type: cell-based; details: MDA-MB 231 breast carcinoma cell culture
Protocol: as §1, §2, §3

IC50 [1]: 1 ± 0.2 µM
IC50 [2]: 3.4 ± 0.7 µM
Structure (SMILES): CC/C(=C(\c1ccccc1)c1ccc(OCCN(C)C)cc1)c1ccccc1 [Tamoxifen, tamoxifen, reference compound]

— paper PMC11241769, “Comprehensive Characterization of Phytochemical Composition, Membrane Permeability, and Antiproliferative Activity of Juglans nigra Polyphenols” (International Journal of Molecular Sciences, 2024)
